Reference: patent US20240117030A1
No constants are given. Whether binding was seen depends on the method and setting. Some results given as binding are weak or reduced against the parent protein; the word gives no strength. Each block holds one binder with its values, some of them ahead of it.

How the values were obtained:
sheep IL-13 (sheep) [1] = biological target: T1, sheep IL-13 (sheep) (UniProt Q0PW91); assay: ELISA: competition with biotinylated human IL-13 for binding to IL13-0001
T1 sequence: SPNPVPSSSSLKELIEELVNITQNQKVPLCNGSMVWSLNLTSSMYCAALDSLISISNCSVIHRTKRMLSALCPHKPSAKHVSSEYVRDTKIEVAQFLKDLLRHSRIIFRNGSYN

sheep IL-13 (sheep) [2] = biological target: T1, sheep IL-13 (sheep); assay: competition ELISA: test species IL-13 against biotinylated human IL-13 for binding to IL13-0001
[3] = biological target: cynomolgus monkey IL-12 (cynomolgus monkey); assay: SPR 37°C, antibody captured by anti-human Fc

- binding (sheep IL-13 (sheep) [1]): binds
- binding (sheep IL-13 (sheep) [2]): binds
B1: IL13-0001 (antibody, human IgG1, kappa, V domains shown)
VH: EVQLVESGGGLVQPGGSLRLSCAASGFTFSSYAMSWVRQAPGKGLEWVASISSGDTTYYPDSVKGRFTISRDNAKNSLYLQMNSLRAEDTAVYYCARNEGYYFGLTLWGQGTLVTVSS
VL: DIQMTQSPSSLSASVGDRVTITCKASESVDHFGWSLVHWYQQKPGKAPKLLIYRASNLESGVPSRFSGSGSGTDFTLTISSLQPEDFATYYCQQSNEDPWTFGGGTKVEIKR

- binding [3]: binds
B2: p40-0003 (antibody, human IgG1, kappa, V domains shown)
VH: EVQLVQSGAEVKKPGESLKISCKGSGYSFTTYWLGWVRQMPGKGLDWIGIMSPVDSDIRYSPSFQGQVTMSVDKSITTAYLQWNSLKASDTAMYYCARRRPGQGYFDFWGQGTLVTVSS
VL: DIQMTQSPSSLSASVGDRVTITCRASQGISSWLAWYQQKPEKAPKSLIYAASSLQSGVPSRFSGSGSGTDFTLTISSLQPEDFATYYCQQYNIYPYTFGQGTKLEIKR
